The values that follow come from patent US20230365623A1 (FLOREY INSTITUTE OF NEUROSCIENCE AND MENTAL HEALTH, priority 2020, published 2023).

The data set is described as follows: general procedure: peptide synthesis; Rink Amide MBHA LL resin (A-chain, 0.36 mmol/g); TentaGel R PHB-Thr(tBu) Fmoc preloaded resin (B-chain, glucagon, 0.18 m); HCTU/DIEA.

As for [A Cys20(Acm)-B Cys19(Acm)] (V), the conjugation yield (conjugation step, calculated from the B-chain) was 49%.

Under “late stage modification step”, A-chain [Cys7(Pyr), Cys20(Acm)] (IV) gave a step yield of 40%.

Where the note is “oxidative folding step”, “Cys6-Cys11 intramolecularly disulfide-bonded insulin A-chain, [Cys7(tBu), Cys20(Acm)] (III)” gave an oxidative folding yield of 28.5%.
